Publication PMC11084340
No constants are given. Whether binding was seen depends on the method and setting. In cells and extracts the contact can be indirect. Some entries that bind do so weakly or less than the wild type.

Chains of the proteins cited; added tags and fusions are not shown.
UniProt Q96PU5: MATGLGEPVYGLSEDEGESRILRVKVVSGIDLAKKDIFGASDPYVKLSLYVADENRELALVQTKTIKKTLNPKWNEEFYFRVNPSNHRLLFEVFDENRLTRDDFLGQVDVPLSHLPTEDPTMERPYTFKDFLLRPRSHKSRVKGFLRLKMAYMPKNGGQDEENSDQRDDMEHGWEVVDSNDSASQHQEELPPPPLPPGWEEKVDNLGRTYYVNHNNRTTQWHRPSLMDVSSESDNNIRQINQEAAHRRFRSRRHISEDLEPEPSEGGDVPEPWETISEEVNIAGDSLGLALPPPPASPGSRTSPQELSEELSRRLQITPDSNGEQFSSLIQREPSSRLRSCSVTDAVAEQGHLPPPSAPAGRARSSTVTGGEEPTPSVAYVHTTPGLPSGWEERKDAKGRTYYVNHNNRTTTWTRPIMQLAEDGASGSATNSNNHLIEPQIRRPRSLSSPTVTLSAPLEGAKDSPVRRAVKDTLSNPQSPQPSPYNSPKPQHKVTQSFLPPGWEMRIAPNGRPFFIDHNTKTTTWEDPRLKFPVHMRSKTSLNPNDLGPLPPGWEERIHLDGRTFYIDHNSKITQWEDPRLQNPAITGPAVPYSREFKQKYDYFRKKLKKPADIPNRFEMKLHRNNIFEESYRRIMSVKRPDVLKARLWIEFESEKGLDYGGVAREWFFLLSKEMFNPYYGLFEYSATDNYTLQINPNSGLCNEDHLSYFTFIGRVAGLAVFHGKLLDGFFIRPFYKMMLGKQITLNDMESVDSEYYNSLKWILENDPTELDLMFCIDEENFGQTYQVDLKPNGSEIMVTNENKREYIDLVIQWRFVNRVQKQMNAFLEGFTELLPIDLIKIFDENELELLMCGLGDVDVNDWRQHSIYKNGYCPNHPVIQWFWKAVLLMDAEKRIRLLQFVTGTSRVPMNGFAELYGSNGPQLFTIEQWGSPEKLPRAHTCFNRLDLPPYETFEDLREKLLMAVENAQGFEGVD
UniProt Q03135: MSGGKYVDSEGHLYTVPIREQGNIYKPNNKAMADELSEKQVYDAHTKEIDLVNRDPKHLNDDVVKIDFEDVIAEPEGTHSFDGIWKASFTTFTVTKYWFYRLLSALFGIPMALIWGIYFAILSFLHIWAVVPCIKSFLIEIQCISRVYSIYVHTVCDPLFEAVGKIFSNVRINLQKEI
UniProt O00141: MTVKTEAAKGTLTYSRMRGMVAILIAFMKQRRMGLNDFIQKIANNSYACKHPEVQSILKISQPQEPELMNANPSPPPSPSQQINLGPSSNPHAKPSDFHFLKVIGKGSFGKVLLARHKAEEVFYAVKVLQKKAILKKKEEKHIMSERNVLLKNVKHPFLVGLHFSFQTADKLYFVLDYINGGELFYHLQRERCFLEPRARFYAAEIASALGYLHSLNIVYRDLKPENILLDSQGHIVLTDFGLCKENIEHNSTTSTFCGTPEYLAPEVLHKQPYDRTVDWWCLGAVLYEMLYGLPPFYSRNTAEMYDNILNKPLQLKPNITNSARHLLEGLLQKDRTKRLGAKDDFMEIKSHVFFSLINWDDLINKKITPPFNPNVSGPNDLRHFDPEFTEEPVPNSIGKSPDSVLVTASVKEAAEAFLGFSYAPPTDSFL

Assays:
Assay in all cases: co-IP; endogenous proteins precipitated from whole lysates of neutrophils from patients with HTN and NTI; 2x lysis buffer 2 mM EGTA, 100 mM HEPES, 150 mM NaCl, 2% NP40, pH 7.4, protease inhibitors; antibody 2 h at 4 °C, A/G agarose beads overnight; immunoblot; irrelevant antibody (IgG0) as control
[1] = target: NEDD4-2 (human (endogenous in neutrophils)) (UniProt Q96PU5)
[2] = target: T1, epithelial sodium channel (ENaC) α subunit (human (endogenous in neutrophils)) (UniProt P37088)
T1 sequence: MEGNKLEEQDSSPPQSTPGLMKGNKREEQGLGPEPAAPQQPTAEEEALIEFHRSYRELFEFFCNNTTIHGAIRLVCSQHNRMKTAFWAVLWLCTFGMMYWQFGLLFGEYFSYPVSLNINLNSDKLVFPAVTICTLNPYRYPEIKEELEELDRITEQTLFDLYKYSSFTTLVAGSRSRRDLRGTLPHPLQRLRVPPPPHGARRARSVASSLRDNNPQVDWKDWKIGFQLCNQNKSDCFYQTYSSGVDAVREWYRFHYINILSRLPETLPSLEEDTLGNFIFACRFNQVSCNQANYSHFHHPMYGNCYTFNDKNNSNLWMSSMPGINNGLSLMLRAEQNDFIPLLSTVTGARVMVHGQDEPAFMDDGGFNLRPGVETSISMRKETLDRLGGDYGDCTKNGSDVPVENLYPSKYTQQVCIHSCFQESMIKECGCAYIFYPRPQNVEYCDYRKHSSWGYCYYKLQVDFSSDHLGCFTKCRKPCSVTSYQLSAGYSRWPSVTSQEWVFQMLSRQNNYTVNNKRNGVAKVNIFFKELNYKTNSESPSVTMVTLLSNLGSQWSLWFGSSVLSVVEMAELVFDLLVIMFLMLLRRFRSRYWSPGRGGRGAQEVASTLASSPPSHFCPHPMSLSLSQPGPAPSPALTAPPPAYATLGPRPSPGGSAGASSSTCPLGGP

[3] = target: T2, vacuolar protein sorting protein 37 B (human (endogenous in neutrophils)) (UniProt Q9H9H4)
T2 sequence: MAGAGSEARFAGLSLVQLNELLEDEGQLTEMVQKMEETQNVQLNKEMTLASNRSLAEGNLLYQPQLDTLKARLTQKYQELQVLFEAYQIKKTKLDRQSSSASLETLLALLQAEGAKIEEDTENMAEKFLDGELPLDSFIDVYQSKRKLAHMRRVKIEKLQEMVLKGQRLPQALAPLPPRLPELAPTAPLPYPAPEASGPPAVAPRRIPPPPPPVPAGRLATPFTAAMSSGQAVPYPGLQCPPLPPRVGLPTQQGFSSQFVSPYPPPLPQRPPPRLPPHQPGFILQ

[4] = target: caveolin-1 (human (endogenous in neutrophils)) (UniProt Q03135)

Molecule: serum- and glucocorticoid-regulated kinase-1 (from UniProt O00141 1-431) (enzyme)
- binding [1]: binds

Molecule: caveolin-1 (from UniProt Q03135 1-178)
- binding [2]: binds

B1: epithelial sodium channel (ENaC) α subunit (protein, UniProt P37088 1-669)
chain: MEGNKLEEQDSSPPQSTPGLMKGNKREEQGLGPEPAAPQQPTAEEEALIEFHRSYRELFEFFCNNTTIHGAIRLVCSQHNRMKTAFWAVLWLCTFGMMYWQFGLLFGEYFSYPVSLNINLNSDKLVFPAVTICTLNPYRYPEIKEELEELDRITEQTLFDLYKYSSFTTLVAGSRSRRDLRGTLPHPLQRLRVPPPPHGARRARSVASSLRDNNPQVDWKDWKIGFQLCNQNKSDCFYQTYSSGVDAVREWYRFHYINILSRLPETLPSLEEDTLGNFIFACRFNQVSCNQANYSHFHHPMYGNCYTFNDKNNSNLWMSSMPGINNGLSLMLRAEQNDFIPLLSTVTGARVMVHGQDEPAFMDDGGFNLRPGVETSISMRKETLDRLGGDYGDCTKNGSDVPVENLYPSKYTQQVCIHSCFQESMIKECGCAYIFYPRPQNVEYCDYRKHSSWGYCYYKLQVDFSSDHLGCFTKCRKPCSVTSYQLSAGYSRWPSVTSQEWVFQMLSRQNNYTVNNKRNGVAKVNIFFKELNYKTNSESPSVTMVTLLSNLGSQWSLWFGSSVLSVVEMAELVFDLLVIMFLMLLRRFRSRYWSPGRGGRGAQEVASTLASSPPSHFCPHPMSLSLSQPGPAPSPALTAPPPAYATLGPRPSPGGSAGASSSTCPLGGP
- binding [3]: binds
- binding [4]: binds

B2: vacuolar protein sorting protein 37 B (protein, UniProt Q9H9H4 1-285)
chain: MAGAGSEARFAGLSLVQLNELLEDEGQLTEMVQKMEETQNVQLNKEMTLASNRSLAEGNLLYQPQLDTLKARLTQKYQELQVLFEAYQIKKTKLDRQSSSASLETLLALLQAEGAKIEEDTENMAEKFLDGELPLDSFIDVYQSKRKLAHMRRVKIEKLQEMVLKGQRLPQALAPLPPRLPELAPTAPLPYPAPEASGPPAVAPRRIPPPPPPVPAGRLATPFTAAMSSGQAVPYPGLQCPPLPPRVGLPTQQGFSSQFVSPYPPPLPQRPPPRLPPHQPGFILQ
- binding [2]: binds
